According to patent US9232788B2, “Fumigation methods” (Honeywell International Inc., priority 2011, dated 2016):

Test: Atmospheric lifetime, global warming potential and ozone depletion potential
Conditions: factor relative to carbon dioxide (= 1)

In the case of FC(F)=CC(F)(F)F [1225zc, 1,1,3,3,3-pentafluoropropene], the GWP is reported as “less than 1”.

For FC(F)=C(F)C(F)(F)F [HFP, hexafluoropropene], the GWP was “about 0.25”.
